# Measurements: PubChem BioAssay AID493014 (National Center for Advancing Translational Sciences (NCATS), 2011)
# The campaign covered roughly 340,000 compounds. About 170 (0.05%) were called active. The shares of active, inactive and inconclusive entries below differ from those in the screen. The call rests on the fitted dose curve; in most records, active means well fitted inhibition curve with a large enough effect in the signal ratio, with a control signal flat (not every such curve was filed as active); inconclusive means small, poorly fitted or top-dose-only effect, or effect the other way, or a change in a side signal; inactive means flat fitted curve, though single readings scatter; the % refers to the signal ratio. Where the call is inconclusive, the potency comes from a doubtful curve fit.
# Test: qHTS Assay to Find Inhibitors of Chronic Active B-Cell Receptor Signaling;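 on activity change, negative = inhibition: plate controls were basal doxycycline-induced cells for no effect and cells given 10 µM MG132 for full effect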
# Conditions: ABC-DLBCL IkBa-CBG/CBR reporter, luminescence ratio (green luciferase fused to IkBa over red control in TMD8 lymphoma cells), 4 h; activity change, negative = inhibition: at 46.1 µM (top of the series)
# Summary of the method: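 Concentration-response series (up to 46 uM) were applied to TMD8 dual-reporter cells for 4 h at 37C with doxycycline. Green/red ratio, after filter-overlap correction, defined %Activity; red signal alone was normalised to basal cells and zero luminescence.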
# Potency means the concentration at half of the fitted maximal effect.
SMILES,Potency,"activity change, negative = inhibition"
O=C(NNC(=O)c1cnccn1)c1cccc([N+](=O)[O-])c1,"inconclusive: 20.6 µM [falling, single point]",
S=C(NCCN1CCOCC1)N1CCN(c2cccc(Cl)c2)CC1,,inactive
COc1ccc2oc(=O)c(-c3csc(Nc4ccc(O)cc4)n3)cc2c1,,inconclusive: -11%
CC[n+]1c(/C=C/c2ccc(OC)c(OC)c2)ccc2ccccc21,,inconclusive: 9.41%
O=C(c1nn2c(C(F)(F)F)cc(-c3ccco3)nc2c1Br)N1CCCc2ccccc21,"inconclusive: 0.82 µM [rising, full curve, poor fit]",
Cc1cccc(NNC(=O)c2c(F)cccc2Cl)c1,"inconclusive: 5.62 µM [falling, single point]",
CN1CC(=O)N(CC(=O)Nc2ccc(SC(F)F)cc2)C1=O,,inconclusive: 0.617%
CC(C)Sc1nc2c(c(=O)[nH]c(=O)n2C)n1CC(O)COc1ccccc1 (stereo unspecified),"inconclusive: 3.55 µM [falling, full curve, poor fit]",
O=C(CO/N=C/c1ccc(Cl)cc1Cl)NNC(=O)c1ccc(Cl)cc1Cl,,inconclusive: -1.53%
COC(=O)C1CCCN1C(=O)COc1ccc(Br)cc1Cl (stereo unspecified),,inconclusive: 7.37%
O=C(CCc1ccccc1)N1CCN(S(=O)(=O)c2cccs2)CC1,,inactive
Brc1ccc(CNCc2cccs2)cc1,,inconclusive: 6.2%
Cc1ccc(CNC(=O)C2CCN(S(=O)(=O)c3cc(-c4noc(C)n4)ccc3C)CC2)cc1,"inconclusive: 10 µM [falling, partial curve, poor fit]",
CCC(C)C(NC(=O)CCC(=O)OCC(=O)[C@@]1(O)CCC2[C@@H]3CCC4=CC(=O)C=C[C@]4(C)C3[C@@H](O)C[C@@]21C)C(=O)O (stereo partly specified),,inconclusive: -24.4%
Cc1nc(COc2ccccc2Cl)sc1-c1ccnc(N)n1,"inconclusive: 17.8 µM [falling, partial curve, poor fit]",
CCc1nnc(NC(=O)CSc2nc(-c3ccccc3)c(-c3ccccc3)o2)s1,,inactive
Cc1ccccc1OCc1nc(-c2ccc(NC(=O)c3ccc4c(c3)OCO4)cc2)no1,"inconclusive: 0.562 µM [falling, full curve, poor fit]",
CCc1cc2c3c(c1)C1(C(=O)N3C(C)(C)C=C2C)C(C#N)=C(N)Oc2[nH]c(=O)[nH]c(=O)c21 (stereo unspecified),"inconclusive: 25.1 µM [falling, single point]",
COc1ccc(C)cc1NC(=O)NNC(=O)c1ccoc1C,,inconclusive: -12%
Cc1ccc(Cl)cc1S(=O)(=O)N1CCC(C(=O)NC2CCN(Cc3ccccc3)CC2)CC1,,inactive
CCOC(=O)[C@H]1[C@H]2COc3cc(OC)ccc3[C@@H]2N2C(=O)CN(Cc3ccc(C)cc3)C(=O)[C@@]12C,,inconclusive: -8.09%

SMILES,Potency,"activity change, negative = inhibition"
N#Cc1cnc(SCCc2ccccc2)nc1N,,inactive
COc1ccc(C(=O)NCC(=O)N/N=C/C=C/c2ccccc2)cc1OC,,inconclusive: 15.1%
CCOC(=O)C1CCN(C(c2cc(OC)c(OC)c(OC)c2)c2sc3nc(C)nn3c2O)CC1 (stereo unspecified),,inconclusive: -3.7%
COc1ccc(C(=O)NCc2nnc(SCC(=O)N3CCC(C)CC3)o2)cc1OC,,inconclusive: 6.3%
Cc1ccc(NC(=S)NC(=O)c2c(-c3ccccc3Cl)noc2C)cc1,,inconclusive: 15.1%
CCCN1C2=C(C(=O)CC(C)(C)C2)C(c2ccc(F)cc2)C2=C1c1ccccc1C2=O (stereo unspecified),"inconclusive: 32.6 µM [rising, single point]",
CCc1ccccc1NC(=O)CCCN1C(=O)c2cccnc2C1=O,,inconclusive: -74.1%
COc1ccc(/C=C/C=C2\NC(=S)NC2=O)cc1,,inconclusive: 11.8%
CC(C)n1c(SCC(=O)N2CCCC2)nc2c1c(=O)n(C)c(=O)n2C,,inconclusive: -0.221%
CCOC(=O)c1ccc(COC(=O)CNC(=O)CNC(=O)c2ccc(OC)cc2)o1,,inconclusive: 16.7%
O=C(COC(=O)c1n[nH]c2ccccc12)Nc1ccc([N+](=O)[O-])cc1,,inconclusive: 11.4%
CS(=O)(=O)N1Cc2ccccc2CC1C(=O)OCC(=O)Nc1ccc2ccccc2c1 (stereo unspecified),,inactive
CCn1c(O)c(/C=C2\C=NN=C2c2ccccc2)sc1=S,,inactive
O=C(c1ccc(Cl)cc1)C1C2C(=O)N(c3ccccc3)C(=O)C2C2CCCN21 (stereo unspecified),"inconclusive: 15.8 µM [falling, partial curve, poor fit]",
O=C1CC(C(=O)Nc2ccc(Cl)cc2)S/C(=N\N=C\c2ccco2)N1 (stereo unspecified),,inactive
O=[N+]([O-])c1cc(C(F)(F)F)ccc1NCCOc1ccccc1,,inconclusive: 18.2%
N#Cc1nc(-c2cccs2)oc1NCc1ccccc1,,inconclusive: 27.7%
COc1cccc(CNC(=O)Cc2ccc(-n3c(=O)[nH]c4ccccc4c3=O)cc2)c1,,inconclusive: -6.13%
N#Cc1ccc(C(=O)NCC2CCCCC2)cc1,,inconclusive: 1.55%
CC(C)(C)OC(=O)N1CCC(C(=O)N2CCCCCC2)CC1,"inconclusive: 1.84 µM [falling, partial curve]",
COc1ccc(Cl)cc1NC(=O)c1cnc2sccn2c1=O,,inconclusive: -5.52%

# In the list so far, these have a furan ring, fused or not:
SMILES,Potency,"activity change, negative = inhibition"
O=C(c1nn2c(C(F)(F)F)cc(-c3ccco3)nc2c1Br)N1CCCc2ccccc21,"inconclusive: 0.82 µM [rising, full curve, poor fit]",
COc1ccc(C)cc1NC(=O)NNC(=O)c1ccoc1C,,inconclusive: -12%
CCOC(=O)c1ccc(COC(=O)CNC(=O)CNC(=O)c2ccc(OC)cc2)o1,,inconclusive: 16.7%
O=C1CC(C(=O)Nc2ccc(Cl)cc2)S/C(=N\N=C\c2ccco2)N1 (stereo unspecified),,inactive

# Additional structures follow.

SMILES,Potency,"activity change, negative = inhibition"
Cn1c(CC(=O)Nc2ccc(F)cc2)c(Sc2ccccc2)c2ccccc21,,inconclusive: -3.43%
Cc1noc(C)c1COc1ccc(C(=O)OCC(=O)N2CC3(C)CC2CC(C)(C)C3)cc1 (stereo unspecified),,inactive
Cc1ccc(CNc2nc(-c3cccnc3)nc3ccccc23)cc1,,inconclusive: -4.96%
COc1ccc(C2CC(=O)c3cnn(-c4nc(C)cc(C)n4)c3C2)cc1OC (stereo unspecified),,inconclusive: 8.79%
COc1ccc(C2=NN(c3ccc(C(=O)O)cc3)C(c3ccc(OC)c(OC)c3)C2)cc1 (stereo unspecified),"inconclusive: 31.6 µM [cytotoxic, single point]",
CCOC(=O)c1nn(-c2ccccc2)c(C)c1C(C)=O,"inconclusive: 29.1 µM [falling, partial curve, poor fit]",
CC(C)N1C(=O)S/C(=C/c2ccc(Sc3nc4ccccc4[nH]3)o2)C1=O,,inconclusive: 9.26%
O=C(/C=C\c1ccc2c(c1)OCO2)NC1CC(=O)N(c2cccc(F)c2)C1 (stereo unspecified),,inactive
Cc1ccc(S(=O)(=O)NC(=NCC(=O)O)c2ccc(F)cc2)cc1,,inconclusive: 3.55%
COc1ccccc1/C=C/C(=O)OCC(=O)NC(=O)NC1CCCC1,"inconclusive: 16.4 µM [falling, single point]",
O=c1[nH]nc(Cc2ncc(C(F)(F)F)cc2Cl)c2ccccc12,,inconclusive: 0.666%
O=C(C1COc2ccccc2O1)N1CCN(c2ccc(F)cc2)CC1 (stereo unspecified),,inconclusive: 5.61%
CCOC(=O)c1c(C)[nH]c(C2=NNC(=Nc3ccccc3OC)SC2)c1C,,inconclusive: 6.91%
c1ccc2c(CSCCc3ccncc3)cccc2c1,,inconclusive: 18.5%
COc1cc2c(cc1OC)C(c1ccccc1F)NCC2 (stereo unspecified),,inconclusive: -0.917%
CCCNC(=O)c1cc(S(=O)(=O)N2CCc3ccccc32)ccc1F,,inconclusive: -19.1%
Cc1ccsc1/C=N\NC(=O)c1cc(C(C)(C)C)[nH]n1,,inconclusive: -19.7%
O=P(O)(CP(=O)(c1ccccc1)c1ccccc1)c1ccccc1,,inconclusive: 4.14%
COc1ccc(OC)c(Nc2nc(-c3c(C)nc4ncccn34)cs2)c1,"inconclusive: 6.31 µM [falling, full curve]",
COc1ccc(C(=O)Nc2ccc(C)cc2C(=O)c2ccccc2)cc1,,inconclusive: 18.1%
CCCCCc1cc(=O)oc2c(C(CCN3CCCC(C)C3)c3ccc(N(C)C)cc3)c(OC)cc(OC)c12 (stereo unspecified),,inconclusive: 0.257%

SMILES,Potency,"activity change, negative = inhibition"
CC1CCCN(C(=O)c2cc(F)c(F)cc2Cl)C1 (stereo unspecified),,inconclusive: -2.66%
COc1cccc(C(=O)OCC(=O)NCCC2=CCCCC2)c1,,inactive
COc1ccc2nc(C)cc(N3CCN(c4ccccc4)CC3)c2c1,,inactive
CCOc1ccc(N/C(SCc2cccc([N+](=O)[O-])c2)=C(/C#N)C(N)=O)cc1,,inconclusive: -28.1%
COc1ccccc1OCCCOc1ccc([N+](=O)[O-])cc1Cl,,inconclusive: 19.8%
CCC1=[N+](CC(=O)c2ccc(Br)cc2)CCn2c(C)ccc21,,inactive
CCc1cccc(OCC(=O)Nc2ccc(C)c(S(=O)(=O)N3CCCCCC3)c2)c1,,inconclusive: 17.7%
Cc1noc(C)c1C(=O)N1CCCC(C(=O)c2cccc(C(F)(F)F)c2)C1 (stereo unspecified),,inactive
O=C(Cn1ncc2c3ccccc3n(Cc3ccccc3)c2c1=O)NCCN1CCOCC1,,inconclusive: 0.454%
COP(=O)(OC)c1nc(-c2cccc3ccccc23)oc1N1CCCCC1,,inactive
CC(=O)c1cnc2cc(-c3ccc(Cl)cc3)nn2c1C,,inconclusive: 23.7%
Oc1c(/C=N/c2ccccn2)sc2ccccc12,,inconclusive: 447%
Clc1ccc(OCc2cc(-c3ccccc3)no2)cc1Cl,"inconclusive: 32.6 µM [falling, single point]",
COc1cc(/C=C/C(=O)c2ccccc2O)cc(OC)c1OC,,inconclusive: -0.781%
Cc1ccc(CNC(=O)c2cn(C)c(=O)c3c2c2ccccc2n3C)o1,,inactive
COc1ccc(C2CCCN2C(=O)Nc2cccc(C(C)=O)c2)cc1OC (stereo unspecified),,inconclusive: 1.54%
CCCn1nc(Oc2nc(SC)nc(N(C)C)n2)ccc1=O,"inconclusive: 20 µM [falling, partial curve, poor fit]",
Cc1c(CC(=O)O)c(=O)oc2c(C)c(OCc3c(F)cccc3Cl)ccc12,,inconclusive: -1.77%
